PubChem BioAssay AID504784 | Drosophila RNAi Screening Center, 2011

Screen: 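Fly genes whose silencing alters how much lipid cells keep in droplets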 (primary screen)
Cells: Drosophila Kc167 embryonic cells
Reagents: long dsRNA against Drosophila genes, about 250 ng dsRNA per well
Time to read-out: 4 days
Challenge: cells fed 400 µM oleic acid bound to BSA
Measured: 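Cells imaged and segmented; ratio of lipid droplet area to nuclear area, log-transformed, then normalised as a B-score over the screen; higher means more stored lipid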
Scale: droplet/nuclear area B-score: higher = more stored lipid (overstorage)
In all, the deposit lists about 17,000 reagents; this is a random part of those that have a named target and a result. 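Each column is one replicate's B-score; the combined score over replicates was not deposited, so single values may mislead.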 Names joined by + are all predicted targets of the reagent. Further read-outs or replicates are left out here. Reagent sequences are not shown.

gene knocked down	amplicon	droplet/nuclear area B-score, replicate 1
Spag1 (Spag1 axonemal dynein assembly factor)	DRSC15331	-0.393
Cyt-c1L (Cytochrome c1-like)	DRSC14860	-0.0495
Cyt-c1L (Cytochrome c1-like)	DRSC22096	0.283
CG10802	DRSC17762	-0.255
Prosbeta4R1 (Proteasome beta4 subunit-related 1)	DRSC00502	1.35
Vta1 (Vesicle trafficking 1)	DRSC08604	-1.71
Vta1 (Vesicle trafficking 1)	DRSC22848	1.41
RhoGAP93B (Rho GTPase activating protein at 93B)	DRSC15488	-0.774
CG3420	DRSC04995	1.4
Ugt307A1 (UDP-glycosyltransferase family 307 member A1)	DRSC02138	0.614
Uggt (UDP-glucose-glycoprotein glucosyltransferase)	DRSC11315	-0.246
ca (claret)	DRSC15305	1.37
ca (claret)	DRSC15306	0.703
ca (claret)	DRSC16314	1.4
CG9945	DRSC07347	-1.08
CG11825	DRSC06090	0.392
eEF2 (eukaryotic translation elongation factor 2)	DRSC03737	0.778
NaPi-III (Na[+]-dependent inorganic phosphate cotransporter type III)	DRSC10893	0.0425
NaPi-III (Na[+]-dependent inorganic phosphate cotransporter type III)	DRSC10894	-1.04
NaPi-III (Na[+]-dependent inorganic phosphate cotransporter type III)	DRSC22953	0.266
Pmvk (Phosphomevalonate kinase)	DRSC02032	-1.75
CG13560	DRSC04198	-0.00689
RpS30 (Ribosomal protein S30)	DRSC15119	2.92
acj6 (abnormal chemosensory jump 6)	DRSC20304	-2.03
CG11294	DRSC17777	-2.89
Hr96 (Hormone receptor-like in 96)	DRSC16707	0.78
CG15375	DRSC18045	-1.38
CG14645	DRSC12231	1.04
CG13305	DRSC09975	0.153
CG1513	DRSC05194	-1.13
CG1513	DRSC06553	-0.545
CG1513	DRSC06554	0.561
CG13924	DRSC08393	-1.13
CG32053	DRSC10683	0.161
CG13086	DRSC02190	0.365
Cyp313b1 (Cytochrome P450 313b1)	DRSC16629	0.548
CG7878	DRSC16330	-0.367
Cpr64Ac (Cuticular protein 64Ac)	DRSC08462	-1.21
CG43999	DRSC14605	-0.152
CG10839	DRSC01965	0.127
CG2852	DRSC04321	-3.06
CG6675	DRSC03735	-1.58
CG13920	DRSC08389	-0.167
Iswi (Imitation SWI)	DRSC07446	0.461
Cpr35B (Cuticular protein 35B)	DRSC01949	-1.73
Cpr35B (Cuticular protein 35B)	DRSC22797	-0.278
yin	DRSC18854	0.633
yin	DRSC21889	-0.319
Ir51b (Ionotropic receptor 51b)	DRSC05540	0.0471
SdhD (Succinate dehydrogenase, subunit D)	DRSC14215	-0.721
scny (scrawny)	DRSC10509	1.13
scny (scrawny)	DRSC10510	0.653
scny (scrawny)	DRSC23229	0.558
lola (longitudinals lacking)	DRSC05220	-1.29
lola (longitudinals lacking)	DRSC05221	-0.406
lola (longitudinals lacking)	DRSC05222	-0.653
lola (longitudinals lacking)	DRSC05223	-0.0131
lola (longitudinals lacking)	DRSC05224	-1.33
lola (longitudinals lacking)	DRSC06738	1
lola (longitudinals lacking)	DRSC06739	0.616
lola (longitudinals lacking)	DRSC06740	-3.41
lola (longitudinals lacking)	DRSC06741	0.695
lola (longitudinals lacking)	DRSC06742	2.58
lola (longitudinals lacking)	DRSC07646	0.434
lola (longitudinals lacking)	DRSC07647	1.75
Fitm (Fat storage inducing transmembrane protein)	DRSC09772	0.928
CG17726	DRSC15255	0.439
Samuel	DRSC02156	3.01
Samuel	DRSC02401	1.33
Samuel	DRSC02402	0.567
Samuel	DRSC21731	0.237
Samuel	DRSC23114	1.58
blw (bellwether)	DRSC04675	3.83
CG11367	DRSC22434	0.468
Dredd (Death related ced-3/Nedd2-like caspase)	DRSC18461	0.533
CG14300	DRSC14779	-0.296
Shrm (Shroom)	DRSC06437	2.18
Shrm (Shroom)	DRSC06438	2.96
Shrm (Shroom)	DRSC07221	-1.1
Shrm (Shroom)	DRSC23067	-0.0385
CG6656	DRSC16085	-1.82
CG3434	DRSC10365	-0.893
Trax (Translin associated factor X)	DRSC15709	0.674
CG31528	DRSC12003	0.929
CG33269	DRSC10585	1.19
CG4452	DRSC10422	-1.63
CG5131	DRSC02817	0.412
Hou (Houki)	DRSC20001	2.66
Hou (Houki)	DRSC22347	5.74
Start1	DRSC04384	0.204
Ldaf1 (Lipid droplet assembly factor 1)	DRSC17963	0.447
PNUTS (Phosphatase 1 nuclear targeting subunit)	DRSC00638	-0.487
PNUTS (Phosphatase 1 nuclear targeting subunit)	DRSC22136	-0.775
CR13656 (pseudo)	DRSC13705	0.22
CR13656 (pseudo)	DRSC14656	0.108
CG6071	DRSC10579	-0.254
Nmdar1 (NMDA receptor 1)	DRSC12071	0.948
Nmdar1 (NMDA receptor 1)	DRSC12356	0.0174
betaNACtes4 (Nascent-associated complex beta-subunit-like, testis 4)	DRSC19801	-0.555
Dcr-2 (Dicer-2)	DRSC06992	0.257
CG34234 + Dh44-R2	DRSC07278	-0.208
Spn77Ba (Serpin 77Ba)	DRSC10693	1.1
CG2656	DRSC12584	-0.579
CR15280 (pseudo)	DRSC01953	2.2
wwk (white walker)	DRSC01941	3.35

An excerpt from the list above, for reference:
gene knocked down	amplicon	droplet/nuclear area B-score, replicate 1
CG13920	DRSC08389	-0.167
Iswi (Imitation SWI)	DRSC07446	0.461
Cpr35B (Cuticular protein 35B)	DRSC01949	-1.73
Cpr35B (Cuticular protein 35B)	DRSC22797	-0.278
yin	DRSC18854	0.633
yin	DRSC21889	-0.319
Ir51b (Ionotropic receptor 51b)	DRSC05540	0.0471
SdhD (Succinate dehydrogenase, subunit D)	DRSC14215	-0.721
scny (scrawny)	DRSC10509	1.13
